# The supplement of paper PMC6411743
# ± gives the standard deviation of the averaged measurements. The list shows a part of the results.
# How the values were obtained:
# Assay in all cases: NP40-soluble protein abundance relative to vehicle (solubility fold change) (ratio); higher = more soluble protein in presence of GTP
# F5GX51 = target: T1, F5GX51 (UniProt Q9Y4F9)
# T1 sequence (whole entry): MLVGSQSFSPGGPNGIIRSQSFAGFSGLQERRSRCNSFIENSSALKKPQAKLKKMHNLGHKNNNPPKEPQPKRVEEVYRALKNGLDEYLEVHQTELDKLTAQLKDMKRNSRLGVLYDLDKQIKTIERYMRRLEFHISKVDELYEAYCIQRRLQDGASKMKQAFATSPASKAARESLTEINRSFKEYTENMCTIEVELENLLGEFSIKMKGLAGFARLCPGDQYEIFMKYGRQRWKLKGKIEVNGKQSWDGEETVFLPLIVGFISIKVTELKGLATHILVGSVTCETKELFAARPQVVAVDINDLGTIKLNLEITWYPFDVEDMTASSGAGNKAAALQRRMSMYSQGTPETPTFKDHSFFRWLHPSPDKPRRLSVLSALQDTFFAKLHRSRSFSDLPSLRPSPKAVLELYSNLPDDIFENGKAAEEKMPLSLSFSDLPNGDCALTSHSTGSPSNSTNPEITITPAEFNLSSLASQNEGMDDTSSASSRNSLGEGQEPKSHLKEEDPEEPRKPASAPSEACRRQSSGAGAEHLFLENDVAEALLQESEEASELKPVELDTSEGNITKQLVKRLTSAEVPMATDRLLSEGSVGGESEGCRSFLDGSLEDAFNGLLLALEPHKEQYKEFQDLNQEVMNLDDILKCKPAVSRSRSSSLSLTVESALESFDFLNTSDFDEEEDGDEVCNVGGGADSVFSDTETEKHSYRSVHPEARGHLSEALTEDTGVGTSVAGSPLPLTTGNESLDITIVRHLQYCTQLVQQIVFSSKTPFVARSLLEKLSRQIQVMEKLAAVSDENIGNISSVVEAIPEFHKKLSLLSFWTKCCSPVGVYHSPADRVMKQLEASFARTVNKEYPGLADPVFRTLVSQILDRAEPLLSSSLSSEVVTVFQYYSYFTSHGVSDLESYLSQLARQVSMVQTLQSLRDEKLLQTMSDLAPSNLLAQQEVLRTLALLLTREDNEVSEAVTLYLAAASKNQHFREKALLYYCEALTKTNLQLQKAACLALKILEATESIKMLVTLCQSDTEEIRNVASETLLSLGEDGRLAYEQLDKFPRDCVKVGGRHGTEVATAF
# Procedure, shortened: (§1)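 Eight concentrations, 0.1 to 10 mM, were tested on Jurkat crude lysate for 10 min at room temperature and then 3 min at 37 °C, in three independent experiments. The lysate was solubilised with 0.8% NP40 and benzonase, ultracentrifuged, and the supernatant TMT-labelled for LC-MS/MS. Each value is the fold change against the detergent-processed vehicle in its own replicate, from vsn-normalised intensities.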
# [1] = target: T2, F5GYG5 and related entries (UniProt Q9Y3B8)
# T2 sequence (whole entry): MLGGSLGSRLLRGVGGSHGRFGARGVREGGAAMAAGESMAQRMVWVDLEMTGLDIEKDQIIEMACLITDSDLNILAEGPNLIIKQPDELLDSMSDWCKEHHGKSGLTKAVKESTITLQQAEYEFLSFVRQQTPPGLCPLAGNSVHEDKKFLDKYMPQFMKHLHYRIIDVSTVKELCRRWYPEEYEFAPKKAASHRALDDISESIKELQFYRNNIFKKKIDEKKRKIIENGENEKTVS
# Procedure, shortened: as §1
# [2] = target: T3, F5H2B9 and related entries (UniProt Q9BZF9)
# T3 sequence (whole entry): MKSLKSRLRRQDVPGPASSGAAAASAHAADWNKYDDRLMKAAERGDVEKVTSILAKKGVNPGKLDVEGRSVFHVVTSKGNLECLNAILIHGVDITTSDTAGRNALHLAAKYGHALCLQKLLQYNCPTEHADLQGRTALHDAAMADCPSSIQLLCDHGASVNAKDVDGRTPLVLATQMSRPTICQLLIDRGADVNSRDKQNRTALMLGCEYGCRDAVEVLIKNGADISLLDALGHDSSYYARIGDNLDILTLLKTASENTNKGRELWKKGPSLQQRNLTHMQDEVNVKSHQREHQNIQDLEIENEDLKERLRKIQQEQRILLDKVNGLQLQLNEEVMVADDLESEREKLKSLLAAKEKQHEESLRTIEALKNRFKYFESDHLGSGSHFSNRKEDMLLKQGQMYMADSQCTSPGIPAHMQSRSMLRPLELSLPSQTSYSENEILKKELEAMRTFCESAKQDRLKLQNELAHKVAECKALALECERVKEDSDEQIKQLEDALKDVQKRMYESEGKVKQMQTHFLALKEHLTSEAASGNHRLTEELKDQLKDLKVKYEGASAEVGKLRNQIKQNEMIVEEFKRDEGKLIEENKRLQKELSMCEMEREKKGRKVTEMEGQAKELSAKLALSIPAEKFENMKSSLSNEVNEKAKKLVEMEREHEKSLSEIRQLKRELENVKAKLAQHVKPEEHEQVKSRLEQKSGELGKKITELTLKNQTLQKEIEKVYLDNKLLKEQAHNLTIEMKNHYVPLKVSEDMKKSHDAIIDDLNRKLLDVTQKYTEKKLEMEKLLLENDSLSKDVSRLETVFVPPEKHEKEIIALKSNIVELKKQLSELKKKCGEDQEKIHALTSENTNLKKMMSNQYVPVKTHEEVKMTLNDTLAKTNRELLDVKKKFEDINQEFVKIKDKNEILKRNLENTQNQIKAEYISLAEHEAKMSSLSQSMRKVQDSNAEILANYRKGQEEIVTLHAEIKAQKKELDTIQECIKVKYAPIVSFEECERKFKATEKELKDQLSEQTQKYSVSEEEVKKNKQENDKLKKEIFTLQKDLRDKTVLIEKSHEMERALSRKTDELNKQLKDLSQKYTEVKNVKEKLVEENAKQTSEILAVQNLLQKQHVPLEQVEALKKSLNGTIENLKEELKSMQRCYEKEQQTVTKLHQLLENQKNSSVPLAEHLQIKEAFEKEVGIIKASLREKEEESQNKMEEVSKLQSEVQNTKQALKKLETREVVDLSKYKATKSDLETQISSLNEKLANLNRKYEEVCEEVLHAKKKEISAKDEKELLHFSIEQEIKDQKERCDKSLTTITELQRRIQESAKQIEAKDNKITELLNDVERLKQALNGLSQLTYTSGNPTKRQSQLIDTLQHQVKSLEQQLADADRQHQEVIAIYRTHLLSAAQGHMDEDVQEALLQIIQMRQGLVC
# Procedure, shortened: as §1
# F5H658 = target: T4, F5H658 (UniProt Q14562)
# T4 sequence (whole entry): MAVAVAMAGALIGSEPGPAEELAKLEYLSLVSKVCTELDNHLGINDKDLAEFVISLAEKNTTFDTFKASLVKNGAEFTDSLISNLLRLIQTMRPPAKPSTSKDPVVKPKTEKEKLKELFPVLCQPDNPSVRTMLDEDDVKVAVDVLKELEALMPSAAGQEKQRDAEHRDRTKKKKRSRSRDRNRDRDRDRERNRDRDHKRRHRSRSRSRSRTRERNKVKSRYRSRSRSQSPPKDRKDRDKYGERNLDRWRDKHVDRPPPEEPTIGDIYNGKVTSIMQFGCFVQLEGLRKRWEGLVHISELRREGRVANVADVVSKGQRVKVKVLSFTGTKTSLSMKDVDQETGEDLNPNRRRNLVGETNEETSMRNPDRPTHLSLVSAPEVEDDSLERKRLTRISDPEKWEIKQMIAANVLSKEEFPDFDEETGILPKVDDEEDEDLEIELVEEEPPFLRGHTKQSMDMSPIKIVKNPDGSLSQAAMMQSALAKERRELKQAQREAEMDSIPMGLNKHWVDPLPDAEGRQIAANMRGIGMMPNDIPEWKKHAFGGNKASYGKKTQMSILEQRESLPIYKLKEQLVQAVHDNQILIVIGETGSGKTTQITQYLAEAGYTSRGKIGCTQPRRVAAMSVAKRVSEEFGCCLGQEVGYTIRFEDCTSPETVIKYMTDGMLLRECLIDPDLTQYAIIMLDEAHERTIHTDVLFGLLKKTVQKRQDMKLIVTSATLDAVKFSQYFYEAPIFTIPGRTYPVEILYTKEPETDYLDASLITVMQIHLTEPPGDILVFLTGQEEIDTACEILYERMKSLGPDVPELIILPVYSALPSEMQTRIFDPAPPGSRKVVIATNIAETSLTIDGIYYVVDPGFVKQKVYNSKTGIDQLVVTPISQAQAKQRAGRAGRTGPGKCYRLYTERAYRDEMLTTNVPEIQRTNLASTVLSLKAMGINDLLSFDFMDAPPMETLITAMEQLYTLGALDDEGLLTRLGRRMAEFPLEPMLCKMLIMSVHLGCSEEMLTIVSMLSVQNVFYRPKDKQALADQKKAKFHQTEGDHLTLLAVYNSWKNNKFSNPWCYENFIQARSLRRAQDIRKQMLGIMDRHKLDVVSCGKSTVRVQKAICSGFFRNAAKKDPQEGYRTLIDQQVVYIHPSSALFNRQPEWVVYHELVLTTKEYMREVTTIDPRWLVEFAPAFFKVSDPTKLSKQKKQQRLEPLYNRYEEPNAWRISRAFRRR
# Procedure, shortened: as §1
# [3] = target: T5, F5H7W8 and related entries (UniProt Q96C57)
# T5 sequence (whole entry): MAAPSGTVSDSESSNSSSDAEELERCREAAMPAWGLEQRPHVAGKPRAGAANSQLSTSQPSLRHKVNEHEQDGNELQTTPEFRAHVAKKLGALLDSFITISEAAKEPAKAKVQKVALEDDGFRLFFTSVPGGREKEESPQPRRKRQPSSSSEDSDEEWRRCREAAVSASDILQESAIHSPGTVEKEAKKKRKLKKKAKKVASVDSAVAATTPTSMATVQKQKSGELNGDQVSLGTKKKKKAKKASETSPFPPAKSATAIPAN
# Procedure, shortened: as §1
compound,measurement,setting,value
Nc1nc2c(ncn2[C@@H]2O[C@H](COP(=O)(O)OP(=O)(O)OP(=O)(O)O)[C@@H](O)[C@H]2O)c(=O)[nH]1 [guanosine triphosphate],NP40-soluble protein abundance,F5GX51; concentration: 4mM,0.966 ± 0.066
same,NP40-soluble protein abundance,F5GX51; concentration: 6mM,0.969 ± 0.1
same,NP40-soluble protein abundance,F5GX51; concentration: 8mM,0.972 ± 0.045
same,NP40-soluble protein abundance,F5GX51; concentration: 10mM,0.968 ± 0.073
same,NP40-soluble protein abundance,[1]; concentration: 0.1mM,0.889 ± 0.045
same,NP40-soluble protein abundance,[1]; concentration: 0.5mM,0.832 ± 0.036
same,NP40-soluble protein abundance,[1]; concentration: 1mM,0.959 ± 0.053
same,NP40-soluble protein abundance,[1]; concentration: 2mM,0.903 ± 0.032
same,NP40-soluble protein abundance,[1]; concentration: 4mM,0.878 ± 0.041
same,NP40-soluble protein abundance,[1]; concentration: 6mM,0.916 ± 0.049
same,NP40-soluble protein abundance,[1]; concentration: 8mM,0.856 ± 0.11
same,NP40-soluble protein abundance,[1]; concentration: 10mM,0.876 ± 0.038
same,NP40-soluble protein abundance,[2]; concentration: 0.1mM,0.959 ± 0.099
same,NP40-soluble protein abundance,[2]; concentration: 0.5mM,0.951 ± 0.073
same,NP40-soluble protein abundance,[2]; concentration: 1mM,0.992 ± 0.18
same,NP40-soluble protein abundance,[2]; concentration: 2mM,0.926 ± 0.12
same,NP40-soluble protein abundance,[2]; concentration: 4mM,0.961 ± 0.22
same,NP40-soluble protein abundance,[2]; concentration: 6mM,0.961 ± 0.13
same,NP40-soluble protein abundance,[2]; concentration: 8mM,1.03 ± 0.19
same,NP40-soluble protein abundance,[2]; concentration: 10mM,0.941 ± 0.071
same,NP40-soluble protein abundance,F5H658; concentration: 0.1mM,1.1 ± 0.2
same,NP40-soluble protein abundance,F5H658; concentration: 0.5mM,1.11 ± 0.15
same,NP40-soluble protein abundance,F5H658; concentration: 1mM,1.12 ± 0.17
same,NP40-soluble protein abundance,F5H658; concentration: 2mM,1.13 ± 0.18
same,NP40-soluble protein abundance,F5H658; concentration: 4mM,1.18 ± 0.21
same,NP40-soluble protein abundance,F5H658; concentration: 6mM,1.2 ± 0.16
same,NP40-soluble protein abundance,F5H658; concentration: 8mM,1.19 ± 0.24
same,NP40-soluble protein abundance,F5H658; concentration: 10mM,1.17 ± 0.2
same,NP40-soluble protein abundance,[3]; concentration: 0.1mM,0.909 ± 0.065
same,NP40-soluble protein abundance,[3]; concentration: 0.5mM,1 ± 0.14

# Part of the list above, tab-delimited.
compound	measurement	setting	value
Nc1nc2c(ncn2[C@@H]2O[C@H](COP(=O)(O)OP(=O)(O)OP(=O)(O)O)[C@@H](O)[C@H]2O)c(=O)[nH]1 [guanosine triphosphate]	NP40-soluble protein abundance	[1]; concentration: 0.1mM	0.889 ± 0.045
same	NP40-soluble protein abundance	[1]; concentration: 0.5mM	0.832 ± 0.036
same	NP40-soluble protein abundance	[1]; concentration: 1mM	0.959 ± 0.053
same	NP40-soluble protein abundance	[1]; concentration: 2mM	0.903 ± 0.032
same	NP40-soluble protein abundance	[1]; concentration: 4mM	0.878 ± 0.041
same	NP40-soluble protein abundance	[1]; concentration: 6mM	0.916 ± 0.049
same	NP40-soluble protein abundance	[1]; concentration: 8mM	0.856 ± 0.11
same	NP40-soluble protein abundance	[1]; concentration: 10mM	0.876 ± 0.038
